Data as given in PubChem BioAssay AID504791 (Drosophila RNAi Screening Center, 2011).

Screen: 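Genes whose knock-down strengthens or weakens small-RNA reporter silencing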 (primary screen)
Cell system: Drosophila S2-derived reporter cells
Reagent: long dsRNA against Drosophila genes, about 150-250 ng dsRNA per well (siRNA assay); about 80-120 ng (miRNA assay)
Time to read-out: about 5 days (siRNA assay); about 4 days (miRNA assay)
Challenge: copper sulfate induction of reporters: 25 µM (siRNA assay); 200 mM stated (miRNA assay), 1-2 days before reading
Measurement: 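Per-well ratio of Renilla over firefly light, expressed relative to that plate's average ratio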
Units: stable assay Renilla, run 1 in luminescence; stable assay firefly, run 1 in luminescence
Active means: 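a well was a first-pass pick when its plate-scaled ratio rose above 1.5 (siRNA assay) or 1.6 (miRNA assay), or dropped below 0.6; a gene counted only if two separate dsRNAs agreed on retest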
The screen tested about 23,000 reagents; shown is a random part of those that have a named target and a result. Over the whole deposit, 199 (0.86%) were called active. 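Plate-scaled ratios behind the calls are not deposited; printed light signals are raw; many rows marked increased or decreased are still called inactive.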 The numbers tell different reagents against one gene apart. No sequences are given here. Not given: the direction of the score.

Patronin #1 | stable assay Renilla, run 1 = 7915; stable assay firefly, run 1 = 4.84e5; Call = inactive
Patronin #2 | stable assay Renilla, run 1 = 6940; stable assay firefly, run 1 = 3.08e5; Call = inactive
Patronin #3 | stable assay Renilla, run 1 = 6228; stable assay firefly, run 1 = 3.51e5; Call = inactive
Hsdl2 (Hydroxysteroid dehydrogenase like 2) | stable assay Renilla, run 1 = 7610; stable assay firefly, run 1 = 3.60e5; Call = inactive
Mis12 | stable assay Renilla, run 1 = 5476; stable assay firefly, run 1 = 3.80e5; Call = inactive
Tsp42Ef (Tetraspanin 42Ef) | stable assay Renilla, run 1 = 5764; stable assay firefly, run 1 = 4.77e5; Call = inactive
CG10589 | stable assay Renilla, run 1 = 7757; stable assay firefly, run 1 = 5.47e5; Call = inactive
Hmgs (HMG Coenzyme A synthase) | stable assay Renilla, run 1 = 6690; stable assay firefly, run 1 = 2.92e5; Call = inactive
Cp7Fa (Chorion protein a at 7F) #1 | stable assay Renilla, run 1 = 6006; stable assay firefly, run 1 = 3.07e5; Call = inactive
Cp7Fa (Chorion protein a at 7F) #2 | stable assay Renilla, run 1 = 7666; stable assay firefly, run 1 = 2.92e5; Call = inactive
CG11570 | stable assay Renilla, run 1 = 5935; stable assay firefly, run 1 = 3.73e5; Call = inactive
CG1622 | stable assay Renilla, run 1 = 7646; stable assay firefly, run 1 = 4.77e5; Call = inactive
Mst98Ca (Male-specific RNA 98Ca) | stable assay Renilla, run 1 = 4127; stable assay firefly, run 1 = 3.32e5; Call = inactive
CG34325 #1 | stable assay Renilla, run 1 = 5535; stable assay firefly, run 1 = 3.77e5; Call = inactive
CG34325 #2 | stable assay Renilla, run 1 = 5635; stable assay firefly, run 1 = 4.41e5; Call = inactive
ana2 (anastral spindle 2) | stable assay Renilla, run 1 = 8230; stable assay firefly, run 1 = 3.79e5; Call = inactive
CG8219 | stable assay Renilla, run 1 = 6884; stable assay firefly, run 1 = 3.84e5; Call = inactive

Copied from the entries so far, 2 entries:
CG1622 | stable assay Renilla, run 1 = 7646; stable assay firefly, run 1 = 4.77e5; Call = inactive
Mst98Ca (Male-specific RNA 98Ca) | stable assay Renilla, run 1 = 4127; stable assay firefly, run 1 = 3.32e5; Call = inactive

Additional results follow:
CG12984 | stable assay Renilla, run 1 = 6507; stable assay firefly, run 1 = 3.31e5; Call = inactive
CG34248 | stable assay Renilla, run 1 = 6679; stable assay firefly, run 1 = 4.58e5; Call = inactive
CG10936 #1 | stable assay Renilla, run 1 = 5914; stable assay firefly, run 1 = 4.90e5; Call = inactive
CG10936 #2 | stable assay Renilla, run 1 = 6488; stable assay firefly, run 1 = 3.62e5; Call = inactive
CG10936 #3 | stable assay Renilla, run 1 = 6295; stable assay firefly, run 1 = 2.59e5; Call = inactive
Gr64b (Gustatory receptor 64b) | stable assay Renilla, run 1 = 6654; stable assay firefly, run 1 = 4.57e5; Call = inactive
CG13699 | stable assay Renilla, run 1 = 7418; stable assay firefly, run 1 = 3.98e5; Call = inactive
CG12106 | stable assay Renilla, run 1 = 6631; stable assay firefly, run 1 = 3.53e5; Call = inactive
Cubn (Cubilin) | stable assay Renilla, run 1 = 8260; stable assay firefly, run 1 = 3.50e5; Call = inactive
pwn (pawn) | stable assay Renilla, run 1 = 4032; stable assay firefly, run 1 = 3.23e5; Call = inactive
CG14736 | stable assay Renilla, run 1 = 5902; stable assay firefly, run 1 = 3.25e5; Call = inactive
CG15458 | stable assay Renilla, run 1 = 6778; stable assay firefly, run 1 = 3.75e5; Call = inactive
CG1494 | stable assay Renilla, run 1 = 6139; stable assay firefly, run 1 = 4.64e5; Call = inactive
CG17575 | stable assay Renilla, run 1 = 5878; stable assay firefly, run 1 = 2.89e5; Call = inactive
Ir94b (Ionotropic receptor 94b) | stable assay Renilla, run 1 = 10090; stable assay firefly, run 1 = 4.72e5; Call = inactive
vsg (visgun) | stable assay Renilla, run 1 = 3988; stable assay firefly, run 1 = 2.62e5; Call = inactive
eEF2 (eukaryotic translation elongation factor 2) | stable assay Renilla, run 1 = 4811; stable assay firefly, run 1 = 3.42e5; Call = inactive
Tom (Twin of m4) | stable assay Renilla, run 1 = 10690; stable assay firefly, run 1 = 4.27e5; Call = inactive
